Measurements taken from the supplement of paper PMC10398353.
Several values for one entry are separate records, joined by “and”; a condition that tells them apart may be missing. Equal values may be shown once. Where a name gives a salt, the structure may show the parent alone. ± gives the standard deviation of the averaged measurements. Some of the results follow. Single values of this set are uncertain.

Test system: Salmonella enterica serovar Typhimurium ST313 D23580
Assay: normalized bacterial growth (OD600 20 h minus 0 h, interquartile-mean normalized) (fraction of plate interquartile mean); higher = more bacterial growth (less inhibition)
Settings: LPM (pH 5.8, low phosphate, low Mg2+), concentration: 10 µM, temperature: 37 °C

Compound | normalized bacterial growth
C/C=C/C/C=C/CCC(=O)[C@H]1O[C@H]1C(N)=O | 1.24
CNC(=N)NCCC[C@H](N)C(=O)O [NG-Monomethyl-L-arginine acetate] | 1.02
CC1=CC(=O)CC(C)(C)C1(O)/C=C/C(C)=C\C(=O)O (stereo unspecified) | 1.09
Cc1cc(O)c2c(O)c3c(O)cccc3cc2c1 | 0.669
C=CCSCC1Nc2cc(Cl)c(S(N)(=O)=O)cc2S(=O)(=O)N1 (stereo unspecified) | 1.21
NC(=O)c1cccc(N)c1 [3-aminobenzamide] | 1.07
CCCCCCCCCCCCCC[C@@H](O)[C@@H](O)[C@@H](CO)NC(C)=O | 0.978
CC(C)CCCC(C)C1CCC2C3=CCC4CC(O)CCC4(C)C3CCC21C (stereo unspecified) | 1.1
C=CCn1c(=O)c2c(nc(-c3ccc(S(=O)(=O)O)cc3)n2C)n(C)c1=O ["1-Allyl-3,7-dimethyl-8-p-sulfophenylxanthine"] | 0.855
C[C@]12CC[C@@H]3c4ccc(OS(=O)(=O)O)cc4CC[C@H]3[C@@H]1CCC2=O [Estropipate] | 1.01
C[C@]12CC[C@@H]3c4ccc(OS(=O)(=O)O)cc4CC[C@H]3[C@@H]1CCC2=O | 0.998
COc1cccc(OC)c1C(=O)N[C@@H]1C(=O)N2[C@@H]1SC(C)(C)[C@@H]2C(=O)O | 0.87
Cc1ccc(S(=O)(=O)NC(=O)NN2CCCCCC2)cc1 [Tolazamide] | 1.05
COc1cc2c(CCNC(C)=O)c[nH]c2cc1Cl [6-Chloromelatonin] | 1.24
CC(C)(C)CC(C)(C)c1ccc(O)c(Cc2ccc(Cl)cc2Cl)c1 | 1.09
C[C@H]1[C@H](C)CC[C@]2(C(=O)O)CC[C@]3(C)C(=CC[C@@H]4[C@@]5(C)C[C@@H](O)[C@H](O)[C@@](C)(CO)[C@@H]5CC[C@]43C)[C@H]12 | 0.911 ± 0.07
CCOC(=O)c1ccc(N)cc1 | 0.893
CCN(CC)CCOC(=O)C(c1ccccc1)c1ccccc1 | 1
OC(CCCN1CCCCC1)(c1ccccc1)c1ccccc1 [Diphenidol hydrochloride] | 0.655
COc1cc(OC)c2c(=O)c(-c3ccc4c(c3)OCO4)coc2c1 | 0.944
CCOc1ccc2nc3cc(N)ccc3c(N)c2c1 | 0.971

Compound | normalized bacterial growth
CCN(CC)CCNc1ccc(CO)c2sc3ccccc3c(=O)c12 | 1.46
O=c1c(O)cc([C@H]2Oc3cc(O)cc(O)c3C[C@H]2O)cc2c([C@H]3Oc4cc(O)cc(O)c4C[C@H]3O)cc(O)c(O)c12 | 1
CN(Cc1cnc2nc(N)nc(N)c2n1)c1ccc(C(=O)N[C@@H](CCC(=O)O)C(=O)O)cc1 [Methotrexate hydrate] | 1.16
O=C(COc1ccc(Cl)cc1)N1CCN(Cc2ccc3c(c2)OCO3)CC1 | 0.793
Cc1ccsc1/C=C/C1=NCCCN1C [Morantel tartrate] | 0.684
Cc1ccsc1/C=C/C1=NCCCN1C | 1.13
CC(Cc1ccc(O)c(O)c1)(NN)C(=O)O (stereo not drawn) [S-(-)-Carbidopa] | 1.16
CCCCCCCCCC(=O)NC(CN1CCOCC1)[C@H](O)c1ccccc1 (stereo partly specified) | 0.88
CN(C)c1ccc(O)c2c1C[C@H]1C[C@H]3[C@H](N(C)C)C(O)=C(C(N)=O)C(=O)[C@@]3(O)C(O)=C1C2=O [Minocycline hydrochloride] | 0.168 ± 0.19
CN(C)c1ccc(O)c2c1C[C@H]1C[C@H]3[C@H](N(C)C)C(O)=C(C(N)=O)C(=O)[C@@]3(O)C(O)=C1C2=O | 0.248 and 0.315
CCN1CCc2nc(N)oc2CC1 [B-HT 933 dihydrochloride] | 0.581
C[N+](C)(C)CCOC(=O)CCC(=O)OCC[N+](C)(C)C [Succinylcholine chloride] | 1.08
COC1(C)CCC2OC2(C)CCC2C1CC2(C)C (stereo unspecified) | 1.02
Nc1ccc(CCNc2ncnc3c2ncn3C2OC(CO)C(O)C2O)cc1 (stereo unspecified) [N6-2-(4-Aminophenyl)ethyladenosine] | 0.973
OCC1OC(n2cnc3c(NCCc4ccccc4)ncnc32)C(O)C1O (stereo unspecified) [N6-2-Phenylethyladenosine] | 1.11
OC[C@H]1O[C@@H](n2cnc3c(Nc4ccccc4)ncnc32)[C@H](O)[C@@H]1O [N6-Phenyladenosine] | 1.23
CN(C)[C@@H]1C(O)=C(C(N)=O)C(=O)[C@@]2(O)C(O)=C3C(=O)c4c(O)cccc4[C@@](C)(O)[C@H]3[C@H](O)[C@@H]12 [Oxytetracycline dihydrate] | 0.923
CN(C)[C@@H]1C(O)=C(C(N)=O)C(=O)[C@@]2(O)C(O)=C3C(=O)c4c(O)cccc4[C@@](C)(O)[C@H]3[C@H](O)[C@@H]12 | 0.0838
OC(CN1CCN(c2cccc(Cl)c2)CC1)C(c1ccccc1)c1ccccc1 (stereo unspecified) | 0.698
Nc1nc(OCc2ccccc2)c2nc[nH]c2n1 [O6-benzylguanine] | 0.915
CC1=C(/C=C/C(C)=C/C=C/C(C)=C\C(=O)O)C(C)(C)CCC1 | 0.897

Compound | normalized bacterial growth
CC/C(=C(/CC)c1ccc(O)cc1)c1ccc(O)cc1 | 1.29
CC(C)(Sc1ccc(CCN(CCCCC2CCCCC2)C(=O)NC2CCCCC2)cc1)C(=O)O | 1.24
NC1C=CC=C(C(=O)O)C1 (stereo unspecified) [Gabaculine hydrochloride] | 0.986
CSc1ccc2c(c1)N(CCC1CCCCN1C)c1ccccc1S2 (stereo unspecified) [Thioridazine hydrochloride] | 1.15
NC(N)=Nc1nc(CSCC/C(N)=N/S(N)(=O)=O)cs1 | 0.617
NC(N)=Nc1nc(CSCC/C(N)=N/S(N)(=O)=O)cs1 [Famotidine] | 1.03 ± 0.065
Cc1cc(-c2ccccc2)nnc1NCCN1CCOCC1 | 1
COc1ccc(-c2cc(=O)c3c(OC(C)=O)cc(OC(C)=O)cc3o2)cc1 | 1.21
O=c1cc(-c2ccc(O)cc2)oc2c([C@@H]3O[C@H](CO)[C@@H](O)[C@H](O)[C@H]3O)c(O)cc(O)c12 [Vitexin] | 1.2
O=c1cc(-c2ccc(O)cc2)oc2c([C@@H]3O[C@H](CO)[C@@H](O)[C@H](O)[C@H]3O)c(O)cc(O)c12 | 1.11
CC[N+](CC)(CC)CC(=O)Nc1c(C)cccc1C [Lidocaine N-ethyl bromide quaternary salt] | 0.752
COc1cc(-c2ccc(=O)[nH]n2)ccc1OC(F)F [Zardaverine] | 0.917
COC(=O)[C@@H]1OC(=O)[C@H]2O[C@@]23[C@@]1(C)CCC1[C@@]2(C)CCC(=O)C(C)(C)C2C[C@@H](OC(C)=O)[C@]13C (stereo partly specified) | 0.992
CCCCC1(COC(=O)CCC(=O)O)C(=O)N(c2ccccc2)N(c2ccccc2)C1=O | 0.919
COc1cc(NC(C)CCCN)c2ncccc2c1 (stereo unspecified) | 0.763
COC1=C(N)C(=O)c2nc(-c3nc(C(=O)O)c(C)c(-c4ccc(OC)c(OC)c4O)c3N)ccc2C1=O | 0.0182
CCCCNc1c(C(=O)OCC)c(C)nc2c1cnn2CC [Tracazolate hydrochloride] | 0.825
CCCCNc1c(C(=O)OCC)c(C)nc2c1cnn2CC [Tracazolate] | 0.773
C[C@H]1O[C@@H](Oc2c(-c3cc(O)c(O)c(O)c3)oc3cc(O)cc(O)c3c2=O)[C@@H](O)[C@@H](O)[C@@H]1O | 1.1
CC[C@@H](C(=O)[C@@H](C)[C@@H](O)[C@H](C)CCc1ccc(C)c(O)c1C(=O)O)[C@H]1O[C@](CC)([C@H]2CC[C@](O)(CC)[C@H](C)O2)C[C@@H]1C [Lasalocid sodium salt] | 1.06
CC[C@@H](C(=O)[C@@H](C)[C@@H](O)[C@H](C)CCc1ccc(C)c(O)c1C(=O)O)[C@H]1O[C@](CC)([C@H]2CC[C@](O)(CC)[C@H](C)O2)C[C@@H]1C | 1.13 and 0.965

Shown in markdown: entries from further up.

| Compound | normalized bacterial growth |
| --- | --- |
| OCC1OC(n2cnc3c(NCCc4ccccc4)ncnc32)C(O)C1O (stereo unspecified) [N6-2-Phenylethyladenosine] | 1.11 |
| OC[C@H]1O[C@@H](n2cnc3c(Nc4ccccc4)ncnc32)[C@H](O)[C@@H]1O [N6-Phenyladenosine] | 1.23 |
| CN(C)[C@@H]1C(O)=C(C(N)=O)C(=O)[C@@]2(O)C(O)=C3C(=O)c4c(O)cccc4[C@@](C)(O)[C@H]3[C@H](O)[C@@H]12 [Oxytetracycline dihydrate] | 0.923 |
| CN(C)[C@@H]1C(O)=C(C(N)=O)C(=O)[C@@]2(O)C(O)=C3C(=O)c4c(O)cccc4[C@@](C)(O)[C@H]3[C@H](O)[C@@H]12 | 0.0838 |
| OC(CN1CCN(c2cccc(Cl)c2)CC1)C(c1ccccc1)c1ccccc1 (stereo unspecified) | 0.698 |

Later entries:

Compound | normalized bacterial growth
CC12CCCC(O)(C1)C1CC(C)(C)C1CC2 (stereo not drawn) [beta-CARYOPHYLLENE ALCOHOL] | 1.16
CC(C)(C)c1ccc(C(O)CCCN2CCC(C(O)(c3ccccc3)c3ccccc3)CC2)cc1 (stereo unspecified) [Terfenadine] | 1.05
Cc1cc(=O)oc2c(O)c(O)ccc12 | 0.79
CC(COc1ccccc1)NC(C)C(O)c1ccc(O)cc1 (stereo unspecified) | 1.13
CC(COc1ccccc1)NC(C)C(O)c1ccc(O)cc1 (stereo unspecified) [Isoxsuprine hydrochloride] | 0.941
CC1(C)[C@@H](O)CC[C@]2(C)[C@H]3C(=O)C=C4[C@H]5C[C@@](C)(C(=O)O)CC[C@]5(C)CC[C@@]4(C)[C@]3(C)CC[C@@H]12 [18alpha-GLYCYRRHETINIC ACID] | 1.19
CCCCN1CCCCC1C(=O)Nc1c(C)cccc1C (stereo unspecified) | 0.962
CCOC(=O)NNc1nncc2ccccc12 | 1.23
CC(=O)c1c(O)cc(O)cc1O | 0.99
CC(=O)O[C@@H]1CC2C(C)(CC[C@H](O)C2(C)C)C2CC[C@]3(C)C(=CC(=O)O[C@H]3c3ccoc3)C21C (stereo partly drawn) [3beta-HYDROXYDEOXODIHYDRODEOXYGEDUNIN] | 0.918
CCN(CCO)CCCC(C)Nc1ccnc2cc(Cl)ccc12 (stereo unspecified) | 0.949
CON | 1.11
CC(C)c1ccc2c(c1)c(SC(C)(C)C)c(CC(C)(C)C(=O)O)n2Cc1ccc(Cl)cc1 | 0.831
O=c1ccn([C@@H]2O[C@H](COP(=O)(O)OP(=O)(O)OP(=O)(O)O)[C@@H](O)[C@H]2O)c(=O)[nH]1 | 1.16
CN(C)c1ccc(C(=C2C=CC(=[N+](C)C)C=C2)c2ccc(N(C)C)cc2)cc1 | 1.37
COc1ccc(CC2c3cc(OC)c(OC)cc3CC[N+]2(C)CCC(=O)OCCCCCOC(=O)CC[N+]2(C)CCc3cc(OC)c(OC)cc3C2Cc2ccc(OC)c(OC)c2)cc1OC (stereo unspecified) [Atracurium besylate] | 0.713
CC(=O)[C@H]1CC[C@H]2[C@@H]3CC=C4C[C@@H](O)CC[C@]4(C)[C@H]3CC[C@]12C [Pregnenolone] | 0.806
CC(=O)[C@H]1CC[C@H]2[C@@H]3CC=C4C[C@@H](O)CC[C@]4(C)[C@H]3CC[C@]12C | 0.846
